Measured values reported in paper PMC8384837.
Some of the results follow. At the low end of the ranking the order means little.

molecular target: T1, PUM1 PUF domain R1-QFR R2-VFQ R7-NPG S863Q + R864F + Q867R + N899V + Y900F + S1079N + N1080P + E1083G (UniProt Q14671); conditions: yeast three-hybrid, YBZ-1, SC-Leu-His + 0.5 mM 3-AT, 4 days
T1 sequence: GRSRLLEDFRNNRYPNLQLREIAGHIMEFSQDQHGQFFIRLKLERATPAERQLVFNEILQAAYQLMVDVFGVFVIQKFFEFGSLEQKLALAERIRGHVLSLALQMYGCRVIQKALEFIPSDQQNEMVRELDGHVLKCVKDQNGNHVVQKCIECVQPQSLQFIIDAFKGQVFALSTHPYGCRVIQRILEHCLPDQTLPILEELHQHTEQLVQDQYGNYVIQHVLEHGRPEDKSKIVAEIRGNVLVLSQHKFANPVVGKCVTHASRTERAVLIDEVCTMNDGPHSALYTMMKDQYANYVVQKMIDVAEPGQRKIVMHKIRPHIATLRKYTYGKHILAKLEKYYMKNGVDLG

Sequence	binding signal (log2 enrichment (interaction score))
GGCUAGAACUAGUGGAUCCCCCGGCGCCCGGCGGCUCGAGCCCGGGUAAGGGGAAUUUGUCUGCAUGCCGCCGGGCGCCAUGCCUGCAGGUCGACUCUAGAAAACAUG	-5.46
GGCUAGAACUAGUGGAUCCCCCGGCGCCCGGCGGCUCGAGCCCGGGUAAGAUUGAGUCGUCUGCAUGCCGCCGGGCGCCAUGCCUGCAGGUCGACUCUAGAAAACAUG	-5.67
GGCUAGAACUAGUGGAUCCCCCGGCGCCCGGCGGCUCGAGCCCGGGUAAGUAGGAGCUGUCUGCAUGCCGCCGGGCGCCAUGCCUGCAGGUCGACUCUAGAAAACAUG	-6.46
GGCUAGAACUAGUGGAUCCCCCGGCGCCCGGCGGCUCGAGCCCGGGUAAGUUUUCUGAGUCUGCAUGCCGCCGGGCGCCAUGCCUGCAGGUCGACUCUAGAAAACAUG	-5.93
GGCUAGAACUAGUGGAUCCCCCGGCGCCCGGCGGCUCGAGCCCGGGUAAGUUGACACCGUCUGCAUGCCGCCGGGCGCCAUGCCUGCAGGUCGACUCUAGAAAACAUG	-5.01
GGCUAGAACUAGUGGAUCCCCCGGCGCCCGGCGGCUCGAGCCCGGGUAAGAUGACGUAGUCUGCAUGCCGCCGGGCGCCAUGCCUGCAGGUCGACUCUAGAAAACAUG	-6.33
GGCUAGAACUAGUGGAUCCCCCGGCGCCCGGCGGCUCGAGCCCGGGUAAGGGUAAGGCGUCUGCAUGCCGCCGGGCGCCAUGCCUGCAGGUCGACUCUAGAAAACAUG	< -5.76
GGCUAGAACUAGUGGAUCCCCCGGCGCCCGGCGGCUCGAGCCCGGGUAAGAUGUCGAGGUCUGCAUGCCGCCGGGCGCCAUGCCUGCAGGUCGACUCUAGAAAACAUG	-5.7
GGCUAGAACUAGUGGAUCCCCCGGCGCCCGGCGGCUCGAGCCCGGGUAAGUUCGGGAGGUCUGCAUGCCGCCGGGCGCCAUGCCUGCAGGUCGACUCUAGAAAACAUG	-4.21
GGCUAGAACUAGUGGAUCCCCCGGCGCCCGGCGGCUCGAGCCCGGGUAAGUUGGCGAUGUCUGCAUGCCGCCGGGCGCCAUGCCUGCAGGUCGACUCUAGAAAACAUG	-5.92
GGCUAGAACUAGUGGAUCCCCCGGCGCCCGGCGGCUCGAGCCCGGGUAAGUCGAAGACGUCUGCAUGCCGCCGGGCGCCAUGCCUGCAGGUCGACUCUAGAAAACAUG	-4.6
GGCUAGAACUAGUGGAUCCCCCGGCGCCCGGCGGCUCGAGCCCGGGUAAGUGAUAAUCGUCUGCAUGCCGCCGGGCGCCAUGCCUGCAGGUCGACUCUAGAAAACAUG	-6.16
GGCUAGAACUAGUGGAUCCCCCGGCGCCCGGCGGCUCGAGCCCGGGUAAGUUGCCUUCGUCUGCAUGCCGCCGGGCGCCAUGCCUGCAGGUCGACUCUAGAAAACAUG	-5.92
GGCUAGAACUAGUGGAUCCCCCGGCGCCCGGCGGCUCGAGCCCGGGUAAGUUGGCAAAGUCUGCAUGCCGCCGGGCGCCAUGCCUGCAGGUCGACUCUAGAAAACAUG	-5.87
GGCUAGAACUAGUGGAUCCCCCGGCGCCCGGCGGCUCGAGCCCGGGUAAGUAAGUGUAGUCUGCAUGCCGCCGGGCGCCAUGCCUGCAGGUCGACUCUAGAAAACAUG	-5.59
GGCUAGAACUAGUGGAUCCCCCGGCGCCCGGCGGCUCGAGCCCGGGUAAGUUUAUAGUGUCUGCAUGCCGCCGGGCGCCAUGCCUGCAGGUCGACUCUAGAAAACAUG	-5.27
GGCUAGAACUAGUGGAUCCCCCGGCGCCCGGCGGCUCGAGCCCGGGUAAGCUUUUGUGGUCUGCAUGCCGCCGGGCGCCAUGCCUGCAGGUCGACUCUAGAAAACAUG	-5.59
GGCUAGAACUAGUGGAUCCCCCGGCGCCCGGCGGCUCGAGCCCGGGUAAGCUGGAUAAGUCUGCAUGCCGCCGGGCGCCAUGCCUGCAGGUCGACUCUAGAAAACAUG	-5.24
GGCUAGAACUAGUGGAUCCCCCGGCGCCCGGCGGCUCGAGCCCGGGUAAGUGGUCUACGUCUGCAUGCCGCCGGGCGCCAUGCCUGCAGGUCGACUCUAGAAAACAUG	-6.59
GGCUAGAACUAGUGGAUCCCCCGGCGCCCGGCGGCUCGAGCCCGGGUAAGGCAGUGAAGUCUGCAUGCCGCCGGGCGCCAUGCCUGCAGGUCGACUCUAGAAAACAUG	< -5.36
GGCUAGAACUAGUGGAUCCCCCGGCGCCCGGCGGCUCGAGCCCGGGUAAGUUAACUGAGUCUGCAUGCCGCCGGGCGCCAUGCCUGCAGGUCGACUCUAGAAAACAUG	-5.22
GGCUAGAACUAGUGGAUCCCCCGGCGCCCGGCGGCUCGAGCCCGGGUAAGUUCGAAACGUCUGCAUGCCGCCGGGCGCCAUGCCUGCAGGUCGACUCUAGAAAACAUG	-4.69
GGCUAGAACUAGUGGAUCCCCCGGCGCCCGGCGGCUCGAGCCCGGGUAAGGUUAAGUGGUCUGCAUGCCGCCGGGCGCCAUGCCUGCAGGUCGACUCUAGAAAACAUG	-6.4

Exported field by field: entries from further up.
GGCUAGAACUAGUGGAUCCCCCGGCGCCCGGCGGCUCGAGCCCGGGUAAGUUUUCUGAGUCUGCAUGCCGCCGGGCGCCAUGCCUGCAGGUCGACUCUAGAAAACAUG
  binding signal (log2 enrichment (interaction score)) = -5.93
GGCUAGAACUAGUGGAUCCCCCGGCGCCCGGCGGCUCGAGCCCGGGUAAGUCGAAGACGUCUGCAUGCCGCCGGGCGCCAUGCCUGCAGGUCGACUCUAGAAAACAUG
  binding signal (log2 enrichment (interaction score)) = -4.6
